According to article PMC10940091:
Results are given in words; binding and its absence hold for the method and conditions named. In cells and extracts the contact can be indirect. For part of these data: Binding can be weak; no strength is given.

Sequences of proteins named here, by UniProt entry; tags and fusion partners are left off. A change or cut given only in a name is not applied to a line headed by its entry.
UniProt Q9ULU4: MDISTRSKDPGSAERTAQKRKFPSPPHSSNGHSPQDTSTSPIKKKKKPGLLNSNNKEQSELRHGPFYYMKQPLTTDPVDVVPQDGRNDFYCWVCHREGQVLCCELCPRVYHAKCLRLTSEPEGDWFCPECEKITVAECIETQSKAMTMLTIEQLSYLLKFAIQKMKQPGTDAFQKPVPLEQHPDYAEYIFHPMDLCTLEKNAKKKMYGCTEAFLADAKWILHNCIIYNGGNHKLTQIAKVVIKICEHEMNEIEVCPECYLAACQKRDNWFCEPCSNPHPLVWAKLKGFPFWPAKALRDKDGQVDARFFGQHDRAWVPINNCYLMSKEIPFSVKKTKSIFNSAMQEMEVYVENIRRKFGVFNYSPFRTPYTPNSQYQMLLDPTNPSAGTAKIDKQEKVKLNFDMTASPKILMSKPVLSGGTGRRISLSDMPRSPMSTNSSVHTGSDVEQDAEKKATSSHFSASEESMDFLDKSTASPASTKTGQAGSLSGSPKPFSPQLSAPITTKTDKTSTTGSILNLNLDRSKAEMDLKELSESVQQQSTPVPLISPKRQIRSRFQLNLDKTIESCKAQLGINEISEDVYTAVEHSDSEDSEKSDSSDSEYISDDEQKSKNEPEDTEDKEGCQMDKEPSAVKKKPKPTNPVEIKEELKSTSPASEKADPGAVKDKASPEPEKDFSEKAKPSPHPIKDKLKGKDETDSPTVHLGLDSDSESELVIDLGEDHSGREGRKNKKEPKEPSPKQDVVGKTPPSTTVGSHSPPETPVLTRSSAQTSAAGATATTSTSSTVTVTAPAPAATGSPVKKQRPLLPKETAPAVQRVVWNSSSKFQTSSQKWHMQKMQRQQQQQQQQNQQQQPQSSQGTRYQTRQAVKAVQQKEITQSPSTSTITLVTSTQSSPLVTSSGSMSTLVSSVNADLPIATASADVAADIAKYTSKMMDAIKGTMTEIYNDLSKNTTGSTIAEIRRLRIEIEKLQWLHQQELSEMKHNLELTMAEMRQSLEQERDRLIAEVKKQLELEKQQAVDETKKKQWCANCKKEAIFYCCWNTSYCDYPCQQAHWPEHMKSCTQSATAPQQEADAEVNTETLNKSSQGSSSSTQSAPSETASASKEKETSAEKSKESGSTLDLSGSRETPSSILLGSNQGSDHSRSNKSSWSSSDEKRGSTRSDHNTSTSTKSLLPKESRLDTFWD
UniProt Q16236: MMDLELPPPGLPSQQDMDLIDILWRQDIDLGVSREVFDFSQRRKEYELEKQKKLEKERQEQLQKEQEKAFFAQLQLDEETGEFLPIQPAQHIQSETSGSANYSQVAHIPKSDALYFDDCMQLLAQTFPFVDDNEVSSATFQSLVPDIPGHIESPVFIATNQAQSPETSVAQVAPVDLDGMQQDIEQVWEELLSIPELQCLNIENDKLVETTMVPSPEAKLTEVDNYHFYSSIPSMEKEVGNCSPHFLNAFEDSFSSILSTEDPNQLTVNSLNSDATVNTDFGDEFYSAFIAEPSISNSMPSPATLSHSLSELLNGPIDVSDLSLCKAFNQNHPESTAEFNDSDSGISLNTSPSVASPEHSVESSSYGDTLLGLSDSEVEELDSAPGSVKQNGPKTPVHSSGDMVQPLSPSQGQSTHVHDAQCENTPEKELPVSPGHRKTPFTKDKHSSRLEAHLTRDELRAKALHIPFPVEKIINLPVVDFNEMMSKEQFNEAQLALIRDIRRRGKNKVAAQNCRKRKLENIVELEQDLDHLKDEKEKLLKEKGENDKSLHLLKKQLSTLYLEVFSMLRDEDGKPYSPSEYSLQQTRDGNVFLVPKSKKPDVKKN

Tests used:
Assay in all cases: co-IP; HEK293T cells cotransfected with Flag-ZMYND8 and NRF2-ETGE/KKDD-V5 constructs; NETN lysis buffer; IP with anti-Flag antibody or IgG, protein A/G magnetic beads, 4°C; immunoblot with anti-V5 and anti-Flag
[1] = biological target: C-1-deleted (ΔC-1) Flag-ZMYND8 (UniProt Q9ULU4)
[2] = biological target: C-2-deleted (ΔC-2) Flag-ZMYND8 (UniProt Q9ULU4)
[3] = biological target: C-3-deleted (ΔC-3) Flag-ZMYND8 (UniProt Q9ULU4)
[4] = biological target: MYND-deleted (ΔMYND) Flag-ZMYND8 (UniProt Q9ULU4)
[5] = biological target: PBP domain-deleted (ΔPBP) Flag-ZMYND8 (UniProt Q9ULU4)
[6] = biological target: interfragment-deleted (ΔInter) Flag-ZMYND8 (UniProt Q9ULU4)

## FL NRF2-V5 with ETGE mutation into KKDD (NRF2-ETGE/KKDD-V5) (from UniProt Q16236)
[1]
  binding: binds
[2]
  binding: binds
[3]
  binding: binds
[4]
  binding: binds
[5]
  binding: no binding
[6]
  binding: no binding
